In all, about 360,000 compounds went through this assay and about 10,000 (2.8%) were called active. This list was built around the results that the source calls inconclusive (neither active nor inactive); the mix of calls is not that of the screen. Calls come from the whole dose curve; as a rule, active = well fitted inhibition curve with a large enough effect; inconclusive = small, poorly fitted or top-dose-only effect; inactive = flat fitted curve, though single readings scatter. Potencies of inconclusive entries are doubtful fits and often do not repeat.
Target: Serine/threonine-protein kinase PLK1 (Homo sapiens) (UniProt P53350)
Experiment: qHTS for Inhibitors of PLK1-PDB (polo-like kinase 1 - polo-box domain): Primary Screen; note: nearly all actives have a fitted effect of over 65% in size; for max response, negative = inhibition: series mostly up to about 57 µM
Settings: Plk1 PBD binding of FITC phosphopeptide, fluorescence polarization
% is set by controls: 0 for no effect and ±100 for the full control effect; potency is the fitted concentration of half-maximal effect.

Amino acid sequences for entries named in this document (tags omitted).
UniProt P53350, whole entry, looked up: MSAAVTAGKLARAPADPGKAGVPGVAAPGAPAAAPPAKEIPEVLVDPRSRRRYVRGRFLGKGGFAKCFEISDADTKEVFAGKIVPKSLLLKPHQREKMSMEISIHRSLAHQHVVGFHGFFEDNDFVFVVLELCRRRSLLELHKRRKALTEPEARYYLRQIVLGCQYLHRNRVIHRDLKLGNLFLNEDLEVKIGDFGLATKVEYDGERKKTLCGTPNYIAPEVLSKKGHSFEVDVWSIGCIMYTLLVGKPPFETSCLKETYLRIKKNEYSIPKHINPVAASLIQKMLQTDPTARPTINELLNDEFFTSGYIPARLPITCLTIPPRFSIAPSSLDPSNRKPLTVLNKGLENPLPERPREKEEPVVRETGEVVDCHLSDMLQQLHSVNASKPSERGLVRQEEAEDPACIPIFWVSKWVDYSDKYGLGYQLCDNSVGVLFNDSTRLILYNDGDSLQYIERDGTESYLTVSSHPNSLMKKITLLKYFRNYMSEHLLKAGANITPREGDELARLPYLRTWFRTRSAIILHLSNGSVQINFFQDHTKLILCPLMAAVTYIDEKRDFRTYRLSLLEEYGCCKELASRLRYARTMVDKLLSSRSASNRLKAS

SMILES | max response, negative = inhibition | Potency
CSc1ccc(CNc2ncc(-c3cccc([N+](=O)[O-])c3)n2C)cc1 | inactive: -2.57% | 
CCN(C(=O)CSc1nnc(Cn2nnc3ccccc32)o1)c1nc(C)cs1 |  | inconclusive: 23.8 µM [inhibitor, single point]
CCCC1CCC(=NNS(=O)(=O)c2ccc(C)c([N+](=O)[O-])c2)CC1 (centres undefined) |  | inconclusive: 16.8 µM [inhibitor, partial curve]
CC(NC(=O)c1cnccn1)c1ccc(S(N)(=O)=O)cc1 (centres undefined) |  | active: 26.7 µM
CN(C)c1ncccc1-c1nc2ccccc2s1 |  | inconclusive: 33.6 µM [inhibitor, single point]
[N-]=C=C1C(=O)NC(=O)C([n+]2ccc(-c3ccncc3)cc2)C1c1ccccc1C(F)(F)F (centres undefined) |  | inconclusive: 11.9 µM [inhibitor, partial curve]
O=C(Nc1ccccc1)c1sc2cc(C(F)(F)F)cnc2c1-c1cccs1 |  | active: 2.99 µM
Oc1ccc(Br)cc1C=Nc1ccc(Cl)cc1 |  | active: 21.2 µM
O=C(O)c1ccc(N/N=C/c2ccc(F)c(F)c2)cc1 | inconclusive: -32.5% [inhibitor] | 
O=C(/C=C/c1ccco1)NCC1OCCc2ccccc21 (centres undefined) |  | inconclusive: 16.8 µM [inhibitor, partial curve]
COc1ccc(NC(=O)c2cc(C3CCCCN3C(=O)CCCc3ccccc3)on2)c(C)c1 (centres undefined) | inactive: 2.5% | 
COCc1cc(C)n(CC(=O)N2CCCC2)c(=O)c1C#N |  | inconclusive: 4.23 µM [inhibitor, full curve]
OC[C@H]1O[C@@H](c2nc(-c3ccc(C4OCCO4)cc3)no2)[C@H](O)[C@@H]1O | inactive: -6.71% | 
CCOC(CN=c1nc(N(C)C)ss1)OCC |  | active: 6.7 µM
Clc1ccc2nc(-c3ccco3)c(Cc3ccccc3)n2c1 |  | inconclusive: 16.8 µM [inhibitor, partial curve]
CN(C)c1ccc(C2N(c3ccc(Cl)cc3)C(=O)C3CCCN32)cc1 (centres undefined) |  | inconclusive: 37.7 µM [inhibitor, partial curve]
CCCc1nc2sc3c(SCC(=O)NCc4ccco4)ncnc3c2c2c1CCC2 |  | inconclusive: 18.9 µM [inhibitor, partial curve]
CCn1ncc(C2=NOC(C(=O)NCc3ccccc3)C2)c1C (centres undefined) |  | inconclusive: 21.2 µM [inhibitor, partial curve]
Cc1ccc2cc3c(nc2c1)OCC3 | inactive: -1.64% | 
COCCN(C(=S)Nc1ccc(OC)c(Cl)c1)C1CCN(C(C)=O)CC1 | inconclusive: -31.3% [inhibitor] | 
O=C(NC(=S)N1CCCCC1c1cccnc1)c1ccc(Br)cc1 (centres undefined) |  | inconclusive: 4.23 µM [inhibitor, single point]
CNc1nc(-c2c(C)[nH]c3ccc(OC)cc23)cs1 | inactive: -12% | 
COC(=O)c1ccc(C)c(NC(=O)CN(c2ccccc2)S(=O)(=O)N(C)C)c1 |  | active: 21.2 µM
CC(/C=N/n1c(-c2cc(C)[nH]n2)n[nH]c1=S)=C\c1ccco1 |  | inconclusive: 18.9 µM [inhibitor, partial curve]
O=C1NN(c2ccccc2)C(=O)/C1=C\c1coc2ccc(O)cc2c1=O |  | inconclusive: 8.44 µM [inhibitor, partial curve]

SMILES | max response, negative = inhibition | Potency
C=C(C)C1CCC2(C(=O)O)CCC3(C)C(CCC4C5(C)C(C=O)C(O)C(C)(C)C5CCC43C)C12 (centres undefined) |  | inconclusive: 2.99 µM [inhibitor, partial curve]
COc1ccc(C(=O)NC(=S)Nc2ccc3c(c2)Cc2ccccc2-3)cc1 | inactive: -16.5% | 
c1ccc(N(c2ccccc2)c2nc(N3CCCC3)nc(-n3ccnc3)n2)cc1 | inactive: -0.181% | 
CCOC(=O)C1=NN(C(=O)Cc2ccccc2)C(O)(c2ccc(Cl)cc2)C1 (centres undefined) | inactive: -3.77% | 
O=C1c2ccccc2-c2n[nH]c(=O)c3ccc(N4CCCCC4)c1c23 |  | inconclusive: 18.9 µM [inhibitor, single point]
O=Cc1ccc(OCc2ccc3c(c2)OCO3)cc1 | inactive: -5.11% | 
Cn1nc(C(=O)NCC(=O)Nc2ccc(F)c(F)c2F)c2ccccc2c1=O | inactive: -3.1% | 
COC(=O)/C=c1\sc2ncnn2c1=O |  | inconclusive: 26.7 µM [inhibitor, single point]
Cc1ccc2[nH]c(=O)c(COC(=O)c3cccs3)cc2c1 | inactive: -7.23% | 
O=C(O)CC/C(=C\c1cc2c(cc1Br)OCO2)c1nc2ccccc2s1 |  | active: 23.8 µM
N#Cc1c(C(F)(F)F)cc(-c2cccs2)nc1SC(C(=O)O)c1ccccc1 (centres undefined) |  | inconclusive: 21.2 µM [inhibitor, single point]
C[n+]1cnc(-c2ccccc2)cc1-c1ccccc1 |  | inconclusive: 37.7 µM [inhibitor, single point]
CCOC(=O)N1C(=O)[C@@](c2ccc(Cl)cc2)(C(C)C)N1C(=O)OCC |  | inconclusive: 26.7 µM [inhibitor, single point]
Nc1ccccc1SC(CC(=O)c1ccccc1)c1ccc([N+](=O)[O-])cc1 (centres undefined) |  | inconclusive: 2.99 µM [inhibitor, full curve]
Cc1ccccc1Nc1nc(Nc2ccccc2C)nc(SC2=NCCS2)n1 | inactive: -11.9% | 
COc1ccc(NC(=O)Nc2ccc(F)cc2)c(C)c1 | inconclusive: -31.2% [inhibitor] | 
CC(C)(C)SCCNS(=O)(=O)c1ccc(Cl)cc1 |  | inconclusive: 37.7 µM [inhibitor, single point]
Cc1ccc(OCC(=O)Nc2nc(-c3ccccn3)cs2)c(C)c1 |  | active: 23.8 µM
O=C(CSc1nnc(NC(=O)C2CC(=O)N(c3ccc(F)cc3)C2)s1)NCc1ccco1 (centres undefined) | inconclusive: -35% [inhibitor] | 
O=C(Nc1ccc2c(c1)OCCO2)C1CCN(c2ncccn2)CC1 |  | inconclusive: 29.9 µM [inhibitor, partial curve, poor fit]
CCCc1c(C)nc2c(Br)cccc2c1Cl |  | inconclusive: 23.8 µM [inhibitor, single point]
Cc1ccc(C2=NN(C(=O)CSc3nc(N)cc(N)n3)C(c3ccco3)C2)cc1 (centres undefined) |  | inconclusive: 26.7 µM [inhibitor, single point]
Nc1cc(S(=O)(=O)O)cc([N+](=O)[O-])c1O |  | inconclusive: 18.9 µM [inhibitor, partial curve]
COc1ccc(OC)c(NC(=O)COC(=O)CCc2ccc(S(=O)(=O)N3CCOCC3)cc2)c1 | inactive: 7.74% | 
N#CCCN(Cc1ccccc1)C(=S)Nc1ccccc1 |  | inconclusive: 16.8 µM [inhibitor, partial curve]

SMILES | max response, negative = inhibition | Potency
Cc1ccc(SC2=C[C@@]3(O)CC[C@@H](O)[C@@](Sc4ccc(C)cc4)(C2=O)[C@H]3O)cc1 |  | inconclusive: 18.9 µM [inhibitor, partial curve]
CC1CCc2c(sc(/N=C/N(C)C)c2C#N)C1 (centres undefined) | inactive: -3.58% | 
COc1ccc(C(=S)N2CCOCC2)cc1OC(=O)c1cc([N+](=O)[O-])c(C)c([N+](=O)[O-])c1 | inconclusive: -30.8% [inhibitor] | 
O=C(NC(=S)NNC(=O)c1ccccc1[N+](=O)[O-])c1ccccc1 |  | inconclusive: 21.2 µM [inhibitor, partial curve]
CCCCC1(C)OC(=O)C(=Cc2ccc(SC)cc2)C(=O)O1 (centres undefined) |  | active: 2.38 µM
CCCn1c(=O)[nH]c(=O)c2[nH]cnc21 |  | inconclusive: 23.8 µM [inhibitor, single point]
CCOC(=O)c1c(S(=O)(=O)N(C)Cc2ccco2)c(C)n(C)c1C |  | inconclusive: 37.7 µM [inhibitor, single point]
Cc1ccc(N=C2NC(=O)/C(=C\c3ccsc3)S2)c(C)c1 |  | active: 29.9 µM
O=C(O)c1ncsc1-c1ccccc1 |  | active: 23.8 µM
COc1cc(N(C)C)ccc1C=c1c2ccccc2n2c1cc(-c1ccccc1)[n+]2C |  | inconclusive: 26.7 µM [inhibitor, single point]
CC1CN(c2snnc2C=C2C(=O)OC(C)(C)OC2=O)CC(C)O1 (centres undefined) |  | inconclusive: 29.9 µM [inhibitor, partial curve]
CC1(C)CC(=O)c2cc(N=C/C(C(=O)c3ccccc3)=C(\O)c3ccccc3)c(=O)oc2C1 |  | active: 23.8 µM
CCOC(=O)Cc1cc(=O)n2[nH]cc(-c3cccc(Br)c3)c2n1 |  | inconclusive: 26.7 µM [inhibitor, single point]
CC(=O)Nc1nc(-c2cccc3ccccc23)cs1 |  | active: 3.77 µM
CN(C)C(=S)Nc1cccc(-c2n[nH]c(=S)o2)c1 | inactive: -21.5% | 
COc1ccc(CCN(C)Cc2c(O)ccc3ccccc23)cc1OC |  | active: 21.2 µM
c1ccc2nc3c(nc2c1)c1ccccc1n3CCN1CCOCC1 | inactive: -12.1% | 
O=[N+]([O-])c1cc(/C=N\Nc2nc(-c3ccccc3)cs2)ccc1O |  | inconclusive: 23.8 µM [inhibitor, partial curve]
Cc1cc(NC(=O)CSCC(=O)Nc2cccc(S(=O)(=O)N3CCCCCC3)c2)no1 | inactive: -5% | 
O=C(O)CSCCc1ccccn1 |  | active: 29.9 µM
COc1ccc(NS(=O)(=O)c2ccc(NC(C)=O)cc2)c(OC)c1 |  | active: 23.8 µM
Cc1cc(C)n2c(SCC(=O)NCc3ccc4c(c3)OCO4)nnc2n1 |  | active: 23.8 µM
Cc1cccc(C)c1Nc1n[nH]c(=S)s1 |  | inconclusive: 37.7 µM [inhibitor, single point]
O=S(=O)(Cc1ccccc1)N=Nc1c(O)[nH]c2ccc(Br)cc12 |  | inconclusive: 26.7 µM [inhibitor, partial curve]

Single entries from the results shown.
Potency, COc1ccc(NS(=O)(=O)c2ccc(NC(C)=O)cc2)c(OC)c1 is entered as active: 23.8 µM
Potency, CC1(C)CC(=O)c2cc(N=C/C(C(=O)c3ccccc3)=C(\O)c3ccccc3)c(=O)oc2C1 is entered as active: 23.8 µM

Quoted at random: 4 compounds from above
SMILES | max response, negative = inhibition | Potency
O=C(O)CSCCc1ccccn1 |  | active: 29.9 µM
CC1CCc2c(sc(/N=C/N(C)C)c2C#N)C1 (centres undefined) | inactive: -3.58% | 
CCCn1c(=O)[nH]c(=O)c2[nH]cnc21 |  | inconclusive: 23.8 µM [inhibitor, single point]
Cc1cc(NC(=O)CSCC(=O)Nc2cccc(S(=O)(=O)N3CCCCCC3)c2)no1 | inactive: -5% | 

— PubChem BioAssay AID720504 (National Center for Advancing Translational Sciences (NCATS), 2013)
